Experimental data taken from PubChem BioAssay AID1347076 (National Center for Advancing Translational Sciences (NCATS), 2019).
Out of some 400,000 compounds screened, about 13,000 (3.2%) were called active. The shares of active, inactive and inconclusive entries below differ from those in the screen. Calls follow the shape of the dose curve; as a rule, active = well fitted cell-killing curve with a large enough effect; inconclusive = small, poorly fitted or top-dose-only effect, or effect the other way; inactive = flat fitted curve, though single readings scatter. Potencies of inconclusive entries are doubtful fits and often do not repeat.

Experiment: qHTS assay for MDR1-selective chemotherapeutics: Primary screen using the drug-selected MDR subline cells KB-V1; also: nearly all actives have a fitted effect of over 60% in size
Conditions: KB-V1 MDR cells viability, CellTiter-Glo, 72 h; activity change, negative = cytotoxicity: at 46.1 µM (top of the series)
Outline: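 KB-V1 MDR subline cells in DMEM (phenol-red free, 10% FBS) exposed to compounds in qHTS concentration series for 72 h at 37 degrees C. Viability read by CellTiter-Glo luminescence; concentration-effect curves fitted after normalization and correction.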
% is scaled to controls: 0 for no effect and ±100 for the full control effect; potency is read from the fitted curve at half-maximal effect.

| Structure (SMILES) | activity change, negative = cytotoxicity | Potency |
| --- | --- | --- |
| Cc1ccc(NC(=O)N2CC3CCCN3c3ccccc32)c(C)c1 (stereo not drawn) | inactive: -24.8% | – |
| S=C(NCCc1ccccc1)N1CCN(C23CC4CC(CC(C4)C2)C3)CC1 | – | inconclusive: 2.06 µM [cytotoxic, full curve] |
| COc1ccc(-c2cc(C(=O)N3CCN(c4ccccc4O)CC3)c3ccccc3n2)cc1 | – | inconclusive: 0.0046 µM [cytotoxic, full curve, poor fit] |
| CCn1c(SCC(=O)Nc2ccc(OC)cc2)nc2nc3c(cc2c1=O)CCCC3 | inactive: -10.7% | – |
| CC1CCCC(C)N1C(=O)Cn1cc(/C=C2/C(=O)Nc3ccccc32)c2ccccc21 (stereo not drawn) | inactive: 0% | – |
| CCn1cc(C(=O)N2CCN(c3ccc(F)cc3)CC2)c2cc(OC)c(OC)cc2c1=O | inactive: -3.64% | – |
| CS(=O)(=O)c1ccc(NS(=O)(=O)c2ccc(Cl)c(C(=O)NCc3ccco3)c2)cc1 | inactive: -13.5% | – |
| Nc1[nH]nc2ncc3cc4ccccc4nc3c12 | – | inconclusive: 25.9 µM [cytotoxic, single point] |
| CCOC(=O)C1=CCN(S(=O)(=O)c2ccc(Cl)cc2)C1c1cccc(C)c1 (stereo not drawn) | – | inconclusive: 25.9 µM [cytotoxic, single point] |
| CCC(=O)Nc1ccc2oc(-c3cccnc3)nc2c1 | – | inconclusive: 11.6 µM [rising, partial curve] |
| CCCCc1ccc(S(=O)(=O)N/N=C(/C)c2ccncc2)cc1 | – | inconclusive: 14.6 µM [cytotoxic, partial curve] |
| COc1ccc(C(C)=O)cc1CC(=O)NC1CCCCCC1 | inactive: -23.1% | – |
| CCCN1C2CCCC1CC(NC(=O)c1ccccc1)C2 (stereo not drawn) | inactive: 0.819% | – |
| Cc1ccnc(Nc2nc(-c3c(C)nc4sccn34)cs2)c1 | – | inconclusive: 2.24 µM [cytotoxic, full curve, poor fit] |
| Cc1cc(NS(=O)(=O)c2ccccc2)c(C)c(Cl)c1O | – | active: 20.6 µM |
| COc1ccc(-n2cnc3cc(NC(=O)c4ccco4)ccc32)cc1 | – | active: 16.4 µM |
| O=C(CCNS(=O)(=O)c1ccccc1)OCC(=O)c1ccc[nH]1 | – | inconclusive: 20.6 µM [rising, single point] |
| C=CCn1c(C)c(C(C)=O)c(SC)nc1=S | – | inconclusive: 29.1 µM [cytotoxic, single point] |
| Cc1ccc(-c2nnn(CC(=O)N(CC(=O)NCC3CCCO3)c3ccccc3)n2)o1 (stereo not drawn) | – | inconclusive: 20.6 µM [cytotoxic, single point] |
| COc1ccc(C)cc1S(=O)(=O)N1CCN(C(=O)c2ncoc2-c2ccccc2F)CC1 | – | inconclusive: 29.1 µM [cytotoxic, partial curve, poor fit] |
| Cc1cc(C)n(-c2ccc(C(=O)N3CCN(S(=O)(=O)c4ccc(OC(F)(F)F)cc4)CC3)cc2)n1 | inactive: 1.81% | – |
| CC(C#Cc1c([C@@H](C)Oc2ccccc2)nnn1Cc1ccccc1)Oc1ccccc1 (stereo partly drawn) | – | inconclusive: 11.6 µM [rising, partial curve] |
| Cc1ccc(NS(=O)(=O)c2cc3[nH]c(=O)c(=O)[nH]c3cc2C)cc1Cl | – | inconclusive: 29.1 µM [rising, single point] |

| Structure (SMILES) | activity change, negative = cytotoxicity | Potency |
| --- | --- | --- |
| CCCCOc1ccc(/C=C/C(=O)N(CC)CC(=O)Nc2ccc3c(c2)OCCO3)cc1OC | inactive: -9.8% | – |
| CCCCOCCCNC(=O)C[C@@H]1C[C@@]2(C(=O)OCC)CCCC=C2N(Cc2ccc(Cl)cc2Cl)C1=O | – | inconclusive: 18.4 µM [cytotoxic, single point] |
| Cc1cc(C)c(S(=O)(=O)c2ccccc2C)c(Oc2ccccc2)n1 | – | active: 20.6 µM |
| Cc1nc2oc3ccccc3c(=O)c2c(=O)n1Cc1ccccc1 | – | inconclusive: 14.6 µM [cytotoxic, partial curve] |
| CCCCNC(=O)C1(NC(=O)Nc2ccc(C)cc2)CCCCC1 | inactive: -18.5% | – |
| Cc1ccc(Cn2c(C)c3cnn(CC(=O)NCc4ccccn4)c(=O)c3c2C)cc1 | – | inconclusive: 29.1 µM [cytotoxic, single point] |
| Cc1ccc(C2(c3ccc(C)cc3)CC2C(=O)Nc2ccc([N+](=O)[O-])cc2O)cc1 (stereo not drawn) | – | active: 14.6 µM |
| CCOC(=O)[C@]12CCC=C1N(Cc1cccc3ccccc13)C(=O)[C@H](CC(=O)NCc1ccccc1)C2 | – | inconclusive: 6.51 µM [cytotoxic, partial curve] |
| C[C@@H](C[C@@H](O)[C@H](O)C(C)(C)O)[C@@H]1CC[C@]2(C)C3=CC[C@H]4C(C)(C)C(=O)CC[C@]4(C)[C@H]3CC[C@@]12C | – | inconclusive: 16.4 µM [cytotoxic, single point] |
| COc1cc(NC(=O)CCc2ccccc2)nc(OC)n1 | – | inconclusive: 22.4 µM [cytotoxic, single point] |
| COc1ccc(S(=O)(=O)N2CCN(CC(=O)Nc3cc(C(F)(F)F)ccc3Cl)CC2)cc1 | – | inconclusive: 5.17 µM [cytotoxic, partial curve, poor fit] |
| Cc1cc(NC(=O)c2ccccc2)ncc1NC(=O)c1ccco1 | – | inconclusive: 23.1 µM [cytotoxic, partial curve] |
| Cc1ccc(/C(=N/Nc2ncnc3ccccc23)C(=O)O)cc1 | inactive: -21.8% | – |
| CCCOC(=O)c1c(-c2ccc(OC)cc2)oc2ccc(-c3ccc(OC)nc3)cc12 | – | inconclusive: 29.1 µM [rising, single point] |
| CC(SCc1cc(=O)n2c([nH]c3ccccc32)c1C#N)C(=O)O (stereo not drawn) | – | inconclusive: 18.4 µM [rising, single point] |
| Cc1ccc(Cl)cc1-n1ncc2c(NCCCc3ccccc3)ncnc21 | – | inconclusive: 29.1 µM [cytotoxic, single point] |
| Cc1c(Nc2nc3ccccc3n3c(C)nnc23)cccc1C(=O)O | – | inconclusive: 7.31 µM [rising, partial curve] |
| CCOc1ccccc1CNC(=O)c1ccc2c(c1)nc1n2CCCCC1 | inactive: -29.1% | – |
| Cc1ccccc1OCC(=O)Nc1cccc(N(C)S(C)(=O)=O)c1 | – | inconclusive: 16.4 µM [cytotoxic, single point] |
| COc1ccccc1-c1c(C(F)(F)F)oc2cc(OC(=O)c3cccc([N+](=O)[O-])c3C)ccc2c1=O | inactive: -24.9% | – |
| Cc1ccccc1-n1ncc2c([N+](=O)[O-])cc([N+](=O)[O-])cc21 | – | inconclusive: 29.1 µM [cytotoxic, single point] |
| CC(C)NC(=O)CSc1nc2ccccc2c(=O)n1CCCOC(C)C | – | inconclusive: 2.91 µM [cytotoxic, full curve] |
| Cc1c(Cl)cccc1N=c1c([N+](=O)[O-])nn(-c2ccccc2)n1O | inactive: -1.94% | – |

Among those listed so far, these contain sulfur:

| Structure (SMILES) | activity change, negative = cytotoxicity | Potency |
| --- | --- | --- |
| S=C(NCCc1ccccc1)N1CCN(C23CC4CC(CC(C4)C2)C3)CC1 | – | inconclusive: 2.06 µM [cytotoxic, full curve] |
| CCn1c(SCC(=O)Nc2ccc(OC)cc2)nc2nc3c(cc2c1=O)CCCC3 | inactive: -10.7% | – |
| CS(=O)(=O)c1ccc(NS(=O)(=O)c2ccc(Cl)c(C(=O)NCc3ccco3)c2)cc1 | inactive: -13.5% | – |
| CCOC(=O)C1=CCN(S(=O)(=O)c2ccc(Cl)cc2)C1c1cccc(C)c1 (stereo not drawn) | – | inconclusive: 25.9 µM [cytotoxic, single point] |
| CCCCc1ccc(S(=O)(=O)N/N=C(/C)c2ccncc2)cc1 | – | inconclusive: 14.6 µM [cytotoxic, partial curve] |
| Cc1ccnc(Nc2nc(-c3c(C)nc4sccn34)cs2)c1 | – | inconclusive: 2.24 µM [cytotoxic, full curve, poor fit] |
| Cc1cc(NS(=O)(=O)c2ccccc2)c(C)c(Cl)c1O | – | active: 20.6 µM |
| O=C(CCNS(=O)(=O)c1ccccc1)OCC(=O)c1ccc[nH]1 | – | inconclusive: 20.6 µM [rising, single point] |
| C=CCn1c(C)c(C(C)=O)c(SC)nc1=S | – | inconclusive: 29.1 µM [cytotoxic, single point] |
| COc1ccc(C)cc1S(=O)(=O)N1CCN(C(=O)c2ncoc2-c2ccccc2F)CC1 | – | inconclusive: 29.1 µM [cytotoxic, partial curve, poor fit] |
| Cc1cc(C)n(-c2ccc(C(=O)N3CCN(S(=O)(=O)c4ccc(OC(F)(F)F)cc4)CC3)cc2)n1 | inactive: 1.81% | – |
| Cc1ccc(NS(=O)(=O)c2cc3[nH]c(=O)c(=O)[nH]c3cc2C)cc1Cl | – | inconclusive: 29.1 µM [rising, single point] |
| Cc1cc(C)c(S(=O)(=O)c2ccccc2C)c(Oc2ccccc2)n1 | – | active: 20.6 µM |
| COc1ccc(S(=O)(=O)N2CCN(CC(=O)Nc3cc(C(F)(F)F)ccc3Cl)CC2)cc1 | – | inconclusive: 5.17 µM [cytotoxic, partial curve, poor fit] |
| CC(SCc1cc(=O)n2c([nH]c3ccccc32)c1C#N)C(=O)O (stereo not drawn) | – | inconclusive: 18.4 µM [rising, single point] |
| Cc1ccccc1OCC(=O)Nc1cccc(N(C)S(C)(=O)=O)c1 | – | inconclusive: 16.4 µM [cytotoxic, single point] |
| CC(C)NC(=O)CSc1nc2ccccc2c(=O)n1CCCOC(C)C | – | inconclusive: 2.91 µM [cytotoxic, full curve] |

The results go on:

| Structure (SMILES) | activity change, negative = cytotoxicity | Potency |
| --- | --- | --- |
| Cc1ccc(NC(=S)N(Cc2cccs2)Cc2cc3cc(C)cc(C)c3[nH]c2=O)cc1 | inactive: 17.2% | – |
| CN(C)C(CNC(=O)CCC(=O)c1ccc(Br)cc1)c1ccccc1 (stereo not drawn) | – | inconclusive: 10.3 µM [cytotoxic, partial curve, poor fit] |
| Cc1cc(C)c2cc(C#N)c(NCCNC(=O)c3ccncc3)nc2c1 | – | inconclusive: 18.4 µM [cytotoxic, partial curve] |
| COc1ccc(-c2cc3ccccc3oc2=O)cc1NC(=O)c1ccc(Br)o1 | inactive: -11.5% | – |
| CCCc1cc(=O)n2[nH]c(NC(=O)c3ccccc3Cl)nc2n1 | inactive: 3.87% | – |
| CCOC(=O)N1CCN(C(=O)CN(c2cccc(Cl)c2)S(=O)(=O)c2ccccc2)CC1 | inactive: -2.22% | – |
| O=C1CCC/C1=c1\s/c(=C\c2cccnc2)c(=O)n1-c1ccccc1 | inactive: -25.3% | – |
| CCn1ncc(C2=NOC(C(=O)Nc3ccccc3C(=O)OC)C2)c1C (stereo not drawn) | – | active: 18.4 µM |
| Cc1ccccc1C(=O)NC1CCN(Cc2nnnn2C2CCCC2)CC1 | – | inconclusive: 29.1 µM [cytotoxic, single point] |
| COc1ccc(CC(=O)N(Cc2ccccc2)c2ccc(C)cc2)cc1OC | – | inconclusive: 2.59 µM [cytotoxic, partial curve] |
| O=C(COc1ccccc1[N+](=O)[O-])Nc1ccc2oc(=O)ccc2c1 | – | inconclusive: 18.4 µM [rising, single point] |
| CN[C@@H](CO)C(=O)NC[C@H]1O[C@@H](n2cc(C)c(=O)[nH]c2=O)C[C@@H]1O | – | inconclusive: 4.11 µM [cytotoxic, full curve] |
| Cc1ccc(NC(=O)CCC(=O)NNC(=O)c2ccccc2)c(C)c1 | – | inconclusive: 0.0073 µM [rising, full curve, poor fit] |
| Cc1ccc(NC(=O)c2cc(S(=O)(=O)N3CCc4ccccc43)cn2C)cc1 | – | inconclusive: 18.4 µM [cytotoxic, single point] |
| CCOC(=O)c1sc(N2C(=O)c3oc4ccc(C)cc4c(=O)c3C2c2ccccc2F)nc1C (stereo not drawn) | – | inconclusive: 16.4 µM [rising, partial curve, poor fit] |
| COC(=O)c1c(NC(=O)c2ccccc2C(=O)O)sc2c1CCC2 | inactive: -16.6% | – |
| Cc1n[nH]c(C)c1S(=O)(=O)N1CCCC(C(=O)NCc2ccc(F)cc2)C1 (stereo not drawn) | inactive: -4.2% | – |
| COc1ccc(CN2CCCCC2C(=O)Nc2ccc(OC)c(OCC(C)C)c2)cc1OC (stereo not drawn) | – | inconclusive: 5.8 µM [cytotoxic, partial curve] |
| CCOC(=O)N1CCc2c(sc3ncn(Cc4ccc(F)cc4)c(=O)c23)C1 | – | inconclusive: 8.2 µM [cytotoxic, partial curve] |
| COc1ccc(CC(N)c2csc(NC(=O)Nc3ccc(C(C)C)cc3)n2)cc1 (stereo not drawn) | – | inconclusive: 29.1 µM [cytotoxic, single point] |
| CN(C)c1ccc(C(C(=O)NC2CCCC2)N(C(=O)c2csnn2)C2CC2)cc1 (stereo not drawn) | – | inconclusive: 6.51 µM [cytotoxic, partial curve] |
| O=C(NCc1nnnn1-c1ccc(F)c(F)c1)c1cc2ccccc2o1 | – | inconclusive: 11.6 µM [cytotoxic, partial curve] |
